Measurements reported in US20220268787A1.
These are yes or no findings as the source states them, for the method shown. Some entries that bind do so weakly or less than the wild type.

Assays:
[1] = biological target: T1, WRS (tryptophanyl-tRNA synthetase) protein, full-length (1-471) (human) (UniProt P23381); assay: indirect ELISA on coated full-length WRS
T1 sequence: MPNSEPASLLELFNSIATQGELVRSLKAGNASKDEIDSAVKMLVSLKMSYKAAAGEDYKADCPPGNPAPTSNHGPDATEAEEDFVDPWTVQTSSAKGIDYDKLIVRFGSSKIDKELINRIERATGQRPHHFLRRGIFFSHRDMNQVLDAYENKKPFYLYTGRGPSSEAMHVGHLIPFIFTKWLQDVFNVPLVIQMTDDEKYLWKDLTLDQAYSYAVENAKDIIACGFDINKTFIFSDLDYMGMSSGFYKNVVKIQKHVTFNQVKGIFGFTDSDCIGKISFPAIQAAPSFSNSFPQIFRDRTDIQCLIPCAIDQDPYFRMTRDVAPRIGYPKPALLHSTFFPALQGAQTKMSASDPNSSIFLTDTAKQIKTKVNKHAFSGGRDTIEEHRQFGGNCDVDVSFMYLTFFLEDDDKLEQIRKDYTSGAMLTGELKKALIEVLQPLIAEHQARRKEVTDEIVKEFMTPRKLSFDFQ

[2] = biological target: T1, WRS (tryptophanyl-tRNA synthetase) protein, full-length (1-471) (human); assay: Western blotting of recombinant WRS and its fragments
[3] = biological target: T1, WRS (tryptophanyl-tRNA synthetase) protein, full-length (1-471) (human); assay: indirect ELISA, antigen coated at 1 µg/ml, antibody at 500 ng/ml

- binding [1]: binds
- binding [2]: binds
- binding [3]: binds
B1: 4D10G6 monoclonal antibody (antibody, V domains shown)
VH: EFQLQQSGPELVKPGASVKISCKASGYAFIDYNMNWVKQSNGKSLEWIGVINPNYGTIRYNQKFKGKATLTVDQSSSTAYMQLNSLTSEDSAVYYCAGLLRGYYAMDYWGQGTSVTVSS
VL: QAVVTQESALTTSPGETVTLTCRSSTGAVTTSNYANWVQEKPDHLFTGLIGGTNNRAPGVPARFSGSLIGDKAALTITGAQTEDEAIYFCVLWYSNHWVFGGGTKLTVL
